Data from patent US6891069B1, “Synthesis of 4-substituted phthalaldehyde” (Ethicon, Inc., priority 2004, dated 2005).
Some results were stated once for a whole list of compounds, not compound by compound.

Test system: Mycobacterium terrae bacteria
Assay: bacterial suspension test
Assay type: cell-based
Conditions: within five minutes, 20° C.
Method: In Examples 1 to 3, which follow, several germicidal solutions containing either the 4-fluoro-, 4-chloro-, or 4-bromo-phthalaldehyde compound were tested to determine their effectiveness in killing at least 1×10^6/mL of Mycobacterium terrae bacteria using a bacterial suspension test. The bacterial suspension test that was employed is described in Section VII.
The solutions were prepared by adding the appropriate amounts of the germicidal compounds to an aqueous solution. Unless otherwise mentioned all concentrations reported herein are expressed in (w/v)%. The pH of the solution was not adjusted. The tests were conducted at a temperature of about 20° C. (room temperature). The results are presented in terms of log reductions/mL. It is understood that these examples, as well as the other examples herein, are to be construed as merely illustrative, and not limiting.
In this test method, 9 mL of the germicide to be tested is placed in a tube, put into a water bath and allowed to come to the desired temperature. One mL of the test organism, including at least 7 logs/mL of Mycobacterium terrae bacteria, is added to the 9 mL of the germicide to be tested. […] It will be appreciated by those skilled in the art that other concentrations may be utilized by proper dilution and accounting. […]
The surviving colonies are then counted. […]

Row | Molecule | bacteria of Mycobacterium terrae killed (about 2.3%) | bacteria of Mycobacterium terrae killed (about 2.1%)
1 | 4-pyridinyl-propanedial | at least 1×10^4 bacteria | –
2 | O=CC(C=O)c1cccc(C(=O)O)c1[N+](=O)[O-] [3-(1-formyl-2-oxoethyl)-2-nitro-benzoic acid] | – | at least 1×10^4 bacteria
